# From PubChem BioAssay (NCATS)
# This list was built around the results that the source calls inconclusive (neither active nor inactive); the mix of calls is not that of the screen. Potencies of inconclusive entries are doubtful fits and often do not repeat. Calls of active or inactive are those of the source. The call rests on the fitted dose curve; in most records, active means well fitted activation curve with a large enough effect; inconclusive means small, poorly fitted or top-dose-only effect, or another doubt; inactive means no such curve, though single readings can be large or run the other way.
# Biological target: Rap guanine nucleotide exchange factor 3 (Homo sapiens) (UniProt O95398)
# Assay: Counterscreen qHTS for agonist of cAMP-regulated guanine nucleotide exchange factor 3 (EPAC1) (AID 1645889); further: nearly all actives have a fitted effect of over 40% in size; on activation: % of control where 0% means no effect
# Settings: EPAC1 Rap1B-BODIPY-GDP exchange, fluorescence; activation: at 154 µM (top of the series) unless noted
# Procedure, shortened: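 Measured: fluorescence of BODIPY-GDP bound to Rap1B, which falls as exchange proceeds. Conditions include 50 uM competing GDP, 5 and 30 min reads, and a later cAMP challenge for antagonist detection.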
# Potency means the concentration at half of the fitted maximal effect.
Compound,activation,Potency
C=CCN(CC=C)Cc1cc(=O)oc2cc(C)cc(C)c12,inconclusive: 45.2% [activator] [at 30.8 µM],
CN(Cc1ccccc1)S(=O)(=O)c1ccc(Cl)c(C(=O)NCc2ccncc2)c1,,inactive
COc1ccccc1N1CCN(c2ccc3c(c2)S(=O)(=O)c2cccc(C(=O)NCC4CC4)c2C3=O)CC1,,"inconclusive: 8.91 µM [activator, partial curve]"
C=CCSc1nc(-c2ccc(OC)cc2)c(C#N)c(=O)n1CC=C,inactive: -17.1% [at 30.8 µM],
COc1ccc(Cl)cc1NC(=O)CN1CCc2ccccc21,inactive: 14.8% [at 30.8 µM],
CCOc1ccc(NC(=O)CN(C)C(=O)c2cc(C3CC3)nn2-c2ccccc2)cc1OCC,inconclusive: 23.8% [activator],
CCN(Cc1cc(=O)oc2cc(C)ccc12)c1ccccc1,,"inconclusive: 28.2 µM [activator, partial curve, poor fit]"
CCCCN1C(=O)C(CC(=O)NC2CCCCC2)CC(C(=O)N2CCCCCC2)=C1C (configuration not stated),,"inconclusive: 0.0224 µM [activator, full curve, poor fit]"
COc1ccc(C/C(C)=N/NC(=O)c2cccnc2)cc1,inactive: 7.53% [at 30.8 µM],
Cc1ccc2oc(=O)c3cnn(CC(=O)NCCCOC(C)C)c3c2c1,inconclusive: 38% [activator],
COc1ccc(-n2ccn(Cc3ccccc3Cl)c(=O)c2=O)cc1OC,inconclusive: 25.4% [activator],
COCCn1c(-c2ccc(Br)cc2)csc1=Nc1cccnc1,,inactive

# Entries of single compounds, quoted from the list:
# C=CCSc1nc(-c2ccc(OC)cc2)c(C#N)c(=O)n1CC=C as listed: activation: inactive: -17.1% [at 30.8 µM]
# CCN(Cc1cc(=O)oc2cc(C)ccc12)c1ccccc1 as listed: Potency: inconclusive: 28.2 µM [activator, partial curve, poor fit]
